Data as given in the supplement of paper PMC5949888.
Most values lie at the floor of the assay. Slopes are relative: functional sequences can read slightly below zero.

What follows are substances tested on Saccharomyces cerevisiae PS128 hsf1 delta, HSF1(1-493) fusion (assay: growth estimate (transactivation domain function in HSF1 fusion, heat-shock survival) (a.u. (slope of normalised read count over time)); higher = stronger growth at 37°C, i.e. more transactivation activity). Conditions: library: random library.

Substance	growth estimate
DHVWPTGVRGS	< -0.25
IRETVSKNGSSLPPSPF	< -0.25
VVAPV	< -0.25
CLYDSRSCLG	< -0.25
VAGPLRGNYARTSVCDRRQD	< -0.25
GLLG	< -0.25
GYIC	< -0.25
GIMPRQCRRATKAVQADHAS	< -0.25
DGLVCLLLRSHIIRLSLKRG	< -0.25
FFDTSMIFEFSMSRAKEFLR	< -0.25
QSLMSGGDEIISSVHSGVKD	< -0.25
LGGDQPVTTAP	< -0.25
LSAYRPCVCLRTRLRSVLLD	< -0.25
ESGVVTGTSFVGEASYLRTG	< -0.25
RAKRCAASEVVVRIFVLTST	-0.243
GNRLVDSA	< -0.25
YMGQ	< -0.25
RDIYP	< -0.25
IMNSGGSTGGTPAMSLQRSL	-0.246
GRKRSLLGVKKG	< -0.25
VVVPRPEGGGLLSSYYF	< -0.25
GICIR	< -0.25
SRVDRVFRLSDMSIRLERYQ	< -0.25

Substance	growth estimate
KINPLRRWRIPNFGGAPGSS	< -0.25
ILFSRSPGPTSL	< -0.25
GMLFTFHARDINYCTFRLGF	< -0.25
YRFVRSMAAVNFKGSGDNWV	< -0.25
TEDFKSAVAIGKRTTSPLYG	< -0.25
IVAMLEWDWRVLWCFV	-0.248
GTDNSSRDHRRNGTRAGWID	< -0.25
RSEVGT	-0.22
STFAKPMPILSPSCKVGSLR	< -0.25
VSSSPVGQSVVIVSPKGGSQ	< -0.25
TDTESSVGELVKPRGGLGYN	< -0.25
VNNRTSGKIRAPLNL	< -0.25
HDPAIARTSRRLNRDYRYVA	< -0.25
VQFGELSKKWLVSELVYGLE	< -0.25
PRPGVRSRVTKGLTGWY	< -0.25
QLMPCGAVDRLGPQRWSGQG	< -0.25
SLSLVSWEWTDSMEEAEHGT	-0.225
NTQVRLSVRYNFRRPSTQQ	< -0.25
RKRFGFKRAPPGAKPAGEWL	< -0.25
CGDSLTLSPRAVMAPMVRSP	< -0.25
HIQRSPGYCHYRLAGSET	< -0.25
CISV	< -0.25
LGPARYATRARSGRVWHVSA	< -0.25

Substance	growth estimate
SSVQSTASIERVNTAHIVDY	< -0.25
TNVYKRKHSHK	< -0.25
TVGRKDHRSGSDRRCSQLS	< -0.25
GTSFHAIG	< -0.25
AWLLRPRRG	< -0.25
VWVIARQRNRDILLCVTYEG	< -0.25
LWISVNGAMGWVVRLYRSLF	< -0.25
GMQLRVCGGTSVSA	-0.239
EKARQ	< -0.25
YVTRQFCIEVLPVARGFPRI	-0.0256
LANR	< -0.25
FILGFQGRAWNYAFSVVKGS	< -0.25
PSVISR	< -0.25
DARYWHTLR	< -0.25
RLRSVGQ	-0.243
DPGTMLVCVTVER	< -0.25
GSRTAVSKRESTCSVSVS	< -0.25
VGGGQTSSERR	< -0.25
WRFTN	< -0.25
LRDVCGVNFNISAIDLATPV	< -0.25
YRGSKFV	-0.246
HMHGPLCT	< -0.25
SSFNAASCPMCGLLMGKSPP	< -0.25

Substance	growth estimate
PGTCLPPNPGT	< -0.25
PRRKYYFGLVRYRINV	< -0.25
SDLWEQVCAETLANCYSTTV	< -0.25
FCIHYVRHFTYMLTPAYSQW	< -0.25
ALIFVYDTTMAYVASIGWFS	< -0.25
FFRRSRYADLLPYIHAILHV	< -0.25
LSC	-0.245
VLTM	< -0.25
YASVWV	< -0.25
IRTSTNVCLIRGRALHYRGT	< -0.25
GQIVVGHRGTAVAVESVHVI	< -0.25
PPS	< -0.25
FKVRSPLLFFV	< -0.25
LFVVRIK	-0.141
REVSWPALFSYGGFSEVRHV	-0.203
TANAEPLVRESLSIVPSNVA	< -0.25
AGLART	< -0.25
NSMSVRRAGGPTRERIRTSL	< -0.25
RTSPYHLDSCNFAYSRRSVE	< -0.25
MNV	< -0.25
PNHASFRASCRRS	< -0.25
ASCYREEQDDNSGYDCNFIP	< -0.25
EPGLAVP	< -0.25

Single entries from the list.
growth estimate with AWLLRPRRG is entered as < -0.25
growth estimate with DHVWPTGVRGS is entered as < -0.25

Next part.

Substance	growth estimate
TIGVGSAGYRNVEDYH	< -0.25
GEGSTSVRALLGPNFGNGAG	< -0.25
YTIY	< -0.25
HSVHH	< -0.25
DSGGNLDHGIIGRYEQQSNA	< -0.25
VIVAYQSSEVRTGSRSFLGH	0.285
SWCNGAGQANLGLNGTM	< -0.25
LCLFCTHAAGLLR	< -0.25
MVDGG	< -0.25
PGGGKSTLVVRGHYEWWRDM	< -0.25
ARHN	< -0.25
GKRLVRR	< -0.25
TGNCRRFRVAVNL	< -0.25
RHASSLA	< -0.25
GFR	< -0.25
CIGGVLG	< -0.25
GCKPLL	< -0.25
KVRLKKHARGPDACGLLLAK	< -0.25
LRYVVRWGPAVLLQTILWYR	< -0.25
NFAQAILSLISYGLQQAPVL	< -0.25
PVRCGFWLFTFGKVSMAA	< -0.25
AGLSVRGH	< -0.25
RSWSEVA	< -0.25

Quoted at random: five entries already listed.
Substance	growth estimate
PVRCGFWLFTFGKVSMAA	< -0.25
GCKPLL	< -0.25
GFR	< -0.25
DSGGNLDHGIIGRYEQQSNA	< -0.25
HSVHH	< -0.25

The results go on.

Substance	growth estimate
CTTL	< -0.25
RLTCCDQFA	< -0.25
VSTSVRGRYACFLNPTYR	< -0.25
CDVNVNYLVGYHK	< -0.25
DNSNYALIMACGCAPPESGR	< -0.25
IYQVPGFYTEIGVRYPSSLL	< -0.25
RQCGETDSFPSTSTRFA	< -0.25
PFKPGAP	< -0.25
DWFIDYYRE	0.0722
WTTSLS	< -0.25
VCLPLPNGKWADGGILTV	< -0.25
PASMTIKSSAQTNGALVHDS	-0.248
QTVVRRIKVTLSCVIGSVCP	< -0.25
GLPCTRPKGVACGARQFKYI	< -0.25
RGPLAGHALG	< -0.25
RPDVRGNY	< -0.25
PLVAFGIPRGPSWWGPCING	< -0.25
AELEGLFEPGSHNFHVSERN	< -0.25
RCDPVNWNGEVVSLFRREGA	< -0.25
LSCFRLPAPSRLP	< -0.25
NILG	< -0.25
DGGQALSGQSFPRTGGLAGE	< -0.25
TMICGCRVAGPIHCTVAEWS	< -0.25

Substance	growth estimate
IFYGSLLG	< -0.25
SRAASSNDLFCGGHWTWLRC	< -0.25
FLRRVVGHQAPIALGSKYWL	< -0.25
QSVENGPNPRQTHVPGETQS	< -0.25
SIEKEVERRGRRTLPLNP	< -0.25
RNDSWNLYACA	< -0.25
WKNVRRRGLLPGSLSRLH	< -0.25
KGMRPPIFGMSYLHLAVSRV	< -0.25
YPHGGSKGGEGGTTIDQIRA	< -0.25
VCPSLASDRGGRFCNSPSAL	< -0.25
RRSSVVMKGTVQTDQPPCYD	< -0.25
GSPLVPPHAFFR	< -0.25
TAEDLTASKRSVAILSTTSV	< -0.25
LGEEPETSVRTLNRGT	< -0.25
LMVYMRL	< -0.25
SIRAGLGPKGSSRRTQCRYI	< -0.25
WHIGVGHVI	< -0.25
TFPILYERSRWPR	< -0.25
RPKGWGQWSFLGEYVTHMRR	< -0.25
EGA	< -0.25
PKPHLVLPDYRLEELLSTAV	< -0.25
